# Assay results reported in the supplement of paper PMC12542422.
# Where a name gives a salt, the structure may show the parent alone. ± gives the standard deviation of the averaged measurements. Some of the results follow. Values are raw readings; no control value is given beside them.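 Ribosome-assembly readouts in HeLa cells were imaged via ENP1 staining, with or without export block, or inducible tagged ribosomal protein reporters. Machine learning classified per-cell signal location versus solvent (DMSO) controls. Hits surpassed the DMSO false-positive mean by five standard deviations and were visually confirmed; three biological replicates.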
# Key:
# [1] = tested on: HeLa K (ENP1 immunofluorescence, +LMB); experiment: fraction of cells with nucleolar or nucleolar/nucleoplasmic ENP1 signal (MainHitrate); higher = more cells with nucleolar/nuclear readout signal (for ENP1 -LMB: less RNAPI inhibition; for +LMB ENP1 and RP reporters: stronger nuclear/nucleolar retention, i.e. ribosome biogenesis defect); conditions: concentration: 1 µM; treatment time: 6 h; ENP1 +LMB; leptomycin B: 20 nM, last 1.5 h
# [2] = tested on: HeLa K (ENP1 immunofluorescence, no LMB); experiment: as above; conditions: concentration: 1 µM; treatment time: 6 h; ENP1 -LMB; leptomycin B: none
# HeLa RPS2-YFP reporter = experiment: fraction of reporter-positive cells with nuclear (nucleolar or nucleolar/nucleoplasmic) RPS2-YFP (MainHitrate); higher = more cells with nucleolar/nuclear readout signal (for ENP1 -LMB: less RNAPI inhibition; for +LMB ENP1 and RP reporters: stronger nuclear/nucleolar retention, i.e. ribosome biogenesis defect); conditions: concentration: 1 µM; treatment time: 6 h
# HeLa RPL29-GFP reporter = experiment: fraction of reporter-positive cells with nuclear (nucleolar or nucleolar/nucleoplasmic) RPL29-GFP (MainHitrate); higher = more cells with nucleolar/nuclear readout signal (for ENP1 -LMB: less RNAPI inhibition; for +LMB ENP1 and RP reporters: stronger nuclear/nucleolar retention, i.e. ribosome biogenesis defect); conditions: concentration: 1 µM; treatment time: 6 h
Structure (SMILES),fraction [1],fraction [2],fraction of reporter-positive cells with nuclear (HeLa RPS2-YFP reporter),fraction of reporter-positive cells with nuclear (HeLa RPL29-GFP reporter)
CCN1CCN(C(=O)N[C@@H](C(=O)N[C@@H]2C(=O)N3C(C(=O)O)=C(CSc4nnnn4C)CS[C@H]23)c2ccc(O)cc2)C(=O)C1=O [Cefoperazone (Cefobid)],0.0689 ± 0.07,0.9983 ± 0.0029,0.0973 ± 0.043,0.221 ± 0.05
CCOC(=O)C(C)(C)Oc1ccc(Cl)cc1 [Clofibrate (Atromid-S)],0.0273 ± 0.022,0.9951 ± 0.0084,0.102 ± 0.097,0.235 ± 0.099
CC1=C(/C=C/C(C)=C/C=C/C(C)=C/C=C/C=C(C)/C=C/C=C(C)/C=C/C2=C(C)CCCC2(C)C)C(C)(C)CCC1 [Beta Carotene],0.119 ± 0.12,0.9989 ± 0.0019,0.126 ± 0.073,0.202 ± 0.04
C[C@H]1O[C@@H](n2cc(F)c(=O)[nH]c2=O)[C@H](O)[C@@H]1O [Doxifluridine],0.144 ± 0.22,0.992 ± 0.013,0.105 ± 0.063,0.226 ± 0.07
COC(=O)Nc1nc2cc(Sc3ccccc3)ccc2[nH]1 [Fenbendazole (Panacur)],0.109 ± 0.15,0.993 ± 0.012,0.135 ± 0.097,0.254 ± 0.097
OCCN1C[C@H](O)[C@@H](O)[C@H](O)[C@H]1CO [Miglitol (Glyset)],0.0354 ± 0.036,0.994 ± 0.01,0.11 ± 0.095,0.212 ± 0.073
CN1CCN2c3ccccc3Cc3ccccc3C2C1 (stereo not given) [Mianserin hydrochloride],0.152 ± 0.15,0.9982 ± 0.003,0.127 ± 0.078,0.192 ± 0.068
C#C[C@]1(OC(C)=O)CC[C@H]2[C@@H]3CCC4=C[C@@H](OC(C)=O)CC[C@@H]4[C@H]3CC[C@@]21C [Ethynodiol diacetate],0.147 ± 0.21,0.98 ± 0.034,0.118 ± 0.093,0.205 ± 0.079
Cc1ccc(C(=O)c2cc(O)c(O)c([N+](=O)[O-])c2)cc1 [Tolcapone],0.0895 ± 0.14,0.9944 ± 0.0098,0.119 ± 0.094,0.225 ± 0.073
COc1cc2nc(N(C)CCCNC(=O)C3CCCO3)nc(N)c2cc1OC (stereo not given) [Alfuzosin hydrochloride (Uroxatral)],0.095 ± 0.11,0.9982 ± 0.0031,0.101 ± 0.053,0.2 ± 0.069
O=c1c(-c2ccc(O)cc2)coc2cc(O)cc(O)c12 [Genistein],0.098 ± 0.1,0.997 ± 0.0052,0.123 ± 0.086,0.231 ± 0.055
Fc1ccc(C(c2ccc(F)cc2)N2CCN(C/C=C/c3ccccc3)CC2)cc1 [Flunarizine 2HCl],0.148 ± 0.22,0.989 ± 0.019,0.104 ± 0.092,0.228 ± 0.063
Nc1cc(C(Cl)=C(Cl)Cl)c(S(N)(=O)=O)cc1S(N)(=O)=O [Clorsulon],0.151 ± 0.2,0.984 ± 0.028,0.12 ± 0.1,0.218 ± 0.053
COc1ccc2cc([C@H](C)C(=O)O)ccc2c1 [Naproxen (Aleve)],0.163 ± 0.12,0.9987 ± 0.0023,0.128 ± 0.087,0.21 ± 0.063
CCOc1ccc2nc(S(N)(=O)=O)sc2c1 [Ethoxzolamide],0.0833 ± 0.096,0.993 ± 0.013,0.158 ± 0.12,0.303 ± 0.16
NC[C@H](O)c1ccc(O)c(O)c1 [Noradrenaline bitartrate monohydrate (Levophed)],0.119 ± 0.18,0.975 ± 0.044,0.119 ± 0.093,0.206 ± 0.07
Clc1ccc(CSC(Cn2ccnc2)c2ccc(Cl)cc2Cl)cc1 (stereo not given) [Sulconazole Nitrate],0.0677 ± 0.085,0.992 ± 0.015,0.125 ± 0.097,0.226 ± 0.086
C[C@H](Cc1cc2c(c(C(N)=O)c1)N(CCCO)CC2)NCCOc1ccccc1OCC(F)(F)F [Silodosin (Rapaflo)],0.0891 ± 0.056,0.9981 ± 0.0032,0.0899 ± 0.059,0.193 ± 0.052
CN(c1nccc(=O)[nH]1)C1CCN(c2nc3ccccc3n2Cc2ccc(F)cc2)CC1 [Mizolastine (Mizollen)],0.101 ± 0.15,0.9943 ± 0.0099,0.103 ± 0.076,0.228 ± 0.083
C[C@@H]1CN(c2c(F)c(N)c3c(=O)c(C(=O)O)cn(C4CC4)c3c2F)C[C@H](C)N1 [Sparfloxacin],0.108 ± 0.13,0.986 ± 0.024,0.13 ± 0.066,0.241 ± 0.093
CC(=O)OCC(=O)[C@@]12N=C(C)O[C@@H]1C[C@H]1[C@@H]3CCC4=CC(=O)C=C[C@]4(C)[C@H]3[C@@H](O)C[C@@]12C [Deflazacort (Calcort)],0.11 ± 0.14,0.978 ± 0.038,0.124 ± 0.066,0.257 ± 0.04
Nc1nc2[nH]cnc2c(=S)[nH]1 [Thioguanine],0.0861 ± 0.095,0.9992 ± 0.0014,0.13 ± 0.068,0.201 ± 0.058
Oc1c(Cl)cc(Cl)c2cccnc12 [Chloroxine],0.13 ± 0.18,0.9943 ± 0.0099,0.12 ± 0.08,0.229 ± 0.097
CC1(C)O[C@@H]2[C@@H](CO[C@@]3(COS(N)(=O)=O)OC(C)(C)O[C@@H]23)O1 [Topiramate],0.186 ± 0.15,0.9985 ± 0.0027,0.0945 ± 0.041,0.2 ± 0.048
CCCCOc1cc(C(=O)NCCN(CC)CC)c2ccccc2n1 [Dibucaine HCL],0.0313 ± 0.03,0.988 ± 0.021,0.0941 ± 0.087,0.187 ± 0.067
